Laboratory results published in PubChem BioAssay AID540276 (National Center for Advancing Translational Sciences (NCATS), 2011).
Among all 300,000 compounds or so, about 5,400 (1.8%) were called active. Inconclusive results, whose numbers are uncertain, are shown with a selection of clear calls. Calls come from the whole dose curve; tested in HEK293 cells. Potencies of inconclusive entries are doubtful fits and often do not repeat.

test: qHTS for inhibitors of binding or entry into cells for Marburg Virus; conditions: Marburg virus pseudotyped entry inhibition, cell reporter; activity change, negative = inhibition: at 37.8 µM (top of the series) unless noted
% is set by controls: 0 for no effect and ±100 for the full control effect; potency is the fitted concentration of half-maximal effect.

Structure (SMILES) | Potency | activity change, negative = inhibition
Cc1c(C(=O)Nc2cccc(-c3nnc4n3CCCCC4)c2)oc2ccccc12 | inconclusive: 11.2 µM [inhibitor, partial curve, poor fit] | –
CCN(CC)CCNC(=O)C12CC3CC(C)(CC(C)(C3)C1)C2 | inconclusive: 18.3 µM [inhibitor, partial curve, poor fit] | –
Cc1nnc2sc(SCc3ccc(Cl)cc3)nn2c1=O | inconclusive: 5.17 µM [activator, single point] | –
CC1(C)Oc2ccccc2OC1(O)c1ccc2ccccc2n1 (stereo not given) | inconclusive: 7.08 µM [inhibitor, partial curve, poor fit] | –
O=C(CSc1nnnn1-c1ccccc1)Nc1nsc(-c2ccc(Cl)cc2)n1 | inconclusive: 10 µM [activator, partial curve] | –
O=S(=O)(/C(=C\c1ccc(C(F)(F)F)cc1)c1nc2ccccc2[nH]1)c1ccccc1 | active: 3.98 µM | –
CCC(=O)Nc1ccc2c(c1)ncn2-c1ccccc1 | – | inactive: 0.398%
COc1ccc(N2CCN(C(=O)CCC(=O)c3cc(C)sc3C)CC2)cc1 | inconclusive: 35.5 µM [inhibitor, single point] | –
Cc1ccc(-n2ncc3c(=O)n(-c4ccc(C)c(C)c4)c(-c4ccco4)nc32)cc1 | inconclusive: 23.1 µM [inhibitor, partial curve, poor fit] | –
N#CC1=C(N)Oc2c(ccc3cccnc23)C1c1cccnc1 (stereo not given) | inconclusive: 8.2 µM [inhibitor, partial curve, poor fit] | –
Cc1ccc([C@H]2/C(=C(\O)c3cnn(-c4ccccc4)c3C)C(=O)C(=O)N2CCN2CCOCC2)o1 | – | inactive: 9.9%
Cc1ccc(S(=O)(=O)N(C)c2ccc(C(=O)NCC(c3cccs3)N3CCOCC3)cc2)cc1 (stereo not given) | – | inactive: 22.6%
O=C(Nc1cccc(S(=O)(=O)N2CCCCC2)c1)c1c2c(nc3ccccc13)CCN(Cc1ccccc1)C2 | inconclusive: 14.1 µM [inhibitor, partial curve, poor fit] | –
O=C(N/N=C/c1ccccc1C(=O)O)c1cc(-c2ccc3c4c(cccc24)CC3)n[nH]1 | inconclusive: 5.62 µM [inhibitor, single point] | –
COc1ccc2nc(NC(=O)CCn3cccc3)sc2c1 | inconclusive: 0.562 µM [activator, full curve, poor fit] | –
CC(=O)Nc1cc2cc(NS(=O)(=O)c3ccc(Cl)cc3)ccc2oc1=O | inconclusive: 0.501 µM [inhibitor, full curve, poor fit] | –
O=C(c1cccc([N+](=O)[O-])c1)N1CCN(c2cccc(Cl)c2)CC1 | – | inactive: -6.65%
CCCCN(C)C(=O)c1cn(-c2cccc(OC)c2)c(=O)c2ccccc12 | inconclusive: 28.2 µM [inhibitor, single point] | –
COc1ccc(NC(=O)c2oc3ccccc3c2NC(=O)c2cccc(F)c2)c(OC)c1 | – | inactive: -19.4% [at 46.1 µM]
CC(=O)c1c(C(C)=O)c(C)n(-c2nc(-c3ccc(C)c(C)c3)c(C)s2)c1C | inconclusive: 29.1 µM [inhibitor, single point] | –
CN1CCN(CC(=O)Nc2ccc([N+](=O)[O-])cc2C(=O)c2ccccc2)CC1 | inconclusive: 2 µM [inhibitor, partial curve, poor fit] | –
CCCCOC(=O)c1ccc(NC(=O)c2cc(Cl)c(Cl)cc2C(=O)O)cc1 | – | inactive: -24.8% [at 46.1 µM]

In the list so far, 12 contain a carbonyl joined to an NH by a bond outside any ring.
Structure (SMILES) | Potency | activity change, negative = inhibition
Cc1c(C(=O)Nc2cccc(-c3nnc4n3CCCCC4)c2)oc2ccccc12 | inconclusive: 11.2 µM [inhibitor, partial curve, poor fit] | –
CCN(CC)CCNC(=O)C12CC3CC(C)(CC(C)(C3)C1)C2 | inconclusive: 18.3 µM [inhibitor, partial curve, poor fit] | –
O=C(CSc1nnnn1-c1ccccc1)Nc1nsc(-c2ccc(Cl)cc2)n1 | inconclusive: 10 µM [activator, partial curve] | –
CCC(=O)Nc1ccc2c(c1)ncn2-c1ccccc1 | – | inactive: 0.398%
Cc1ccc(S(=O)(=O)N(C)c2ccc(C(=O)NCC(c3cccs3)N3CCOCC3)cc2)cc1 (stereo not given) | – | inactive: 22.6%
O=C(Nc1cccc(S(=O)(=O)N2CCCCC2)c1)c1c2c(nc3ccccc13)CCN(Cc1ccccc1)C2 | inconclusive: 14.1 µM [inhibitor, partial curve, poor fit] | –
O=C(N/N=C/c1ccccc1C(=O)O)c1cc(-c2ccc3c4c(cccc24)CC3)n[nH]1 | inconclusive: 5.62 µM [inhibitor, single point] | –
COc1ccc2nc(NC(=O)CCn3cccc3)sc2c1 | inconclusive: 0.562 µM [activator, full curve, poor fit] | –
CC(=O)Nc1cc2cc(NS(=O)(=O)c3ccc(Cl)cc3)ccc2oc1=O | inconclusive: 0.501 µM [inhibitor, full curve, poor fit] | –
COc1ccc(NC(=O)c2oc3ccccc3c2NC(=O)c2cccc(F)c2)c(OC)c1 | – | inactive: -19.4% [at 46.1 µM]
CN1CCN(CC(=O)Nc2ccc([N+](=O)[O-])cc2C(=O)c2ccccc2)CC1 | inconclusive: 2 µM [inhibitor, partial curve, poor fit] | –
CCCCOC(=O)c1ccc(NC(=O)c2cc(Cl)c(Cl)cc2C(=O)O)cc1 | – | inactive: -24.8% [at 46.1 µM]

The listing continues:

Structure (SMILES) | Potency | activity change, negative = inhibition
COc1ccc(/C(O)=C2\C(=O)C(=O)N(CCCN(C)C)[C@@H]2c2cccc(Cl)c2)cc1OC | inconclusive: 5.62 µM [inhibitor, single point] | –
Fc1ccc(Cn2c(SCc3ccc(F)c(C(F)(F)F)c3)nnc2C(F)(F)F)cc1 | inconclusive: 20.6 µM [inhibitor, single point] | –
COC(=O)C1=C(C)N(Cc2ccccc2)C(=S)NC1c1cccc(F)c1 (stereo not given) | – | inactive: 48.3% [at 14.2 µM]
CCCCC(=O)NC(c1ccc(OC)c(OC)c1)c1ccc2cccnc2c1O (stereo not given) | active: 3.16 µM | –
COC(=O)c1sc(NC(=O)c2ccc(C)o2)nc1C | inconclusive: 2.51 µM [activator, partial curve, poor fit] | –
COc1cc2cc(CN(Cc3nnnn3Cc3ccco3)C3CCCCC3)c(=O)[nH]c2cc1OC | inconclusive: 35.5 µM [inhibitor, single point] | –
COc1ccc(-c2cn3nc(SCC(=O)NC4CCCCC4)ccc3n2)cc1 | inconclusive: 3.16 µM [inhibitor, single point] | –
COc1ccc(-c2csc(N(CCCN(C)C)C(=O)c3ccc(Br)cc3)n2)cc1 | inconclusive: 35.5 µM [inhibitor, single point] | –
COc1ccc(NS(=O)(=O)c2c(F)cccc2F)cc1S(=O)(=O)N1CCOCC1 | – | inactive: 24%
CC(C)CNC(=O)COC(=O)CCC(=O)c1ccc(Cl)cc1 | inconclusive: 0.562 µM [activator, full curve, poor fit] | –
CC(OC(=O)c1cccc(-n2cnnn2)c1)C(=O)Nc1cccc(Cl)c1 (stereo not given) | – | inactive: -10.7%
COc1ccc(/C=C2\CCc3ccccc3C2=O)cc1O | active: 11.2 µM | –
CC1CCN(S(=O)(=O)c2ccc3c(c2)oc(=O)n3CC(=O)NCc2ccc(F)cc2)CC1 | inconclusive: 35.5 µM [inhibitor, single point] | –
COc1ccc(NS(=O)(=O)c2cccc3cccnc23)cc1Cl | inconclusive: 10 µM [inhibitor, partial curve, poor fit] | –
CCc1ccccc1NC(=O)c1nnn(-c2ccc(F)cc2)c1C | inconclusive: 10 µM [activator, partial curve, poor fit] | –
Cc1ccc(S(=O)(=O)Nc2cccc(Oc3cnccn3)c2)cc1 | inconclusive: 11.2 µM [inhibitor, single point] | –
O=C(Nc1nnc(-c2ccc(F)cc2)o1)c1cc(Cl)sc1Cl | inconclusive: 35.5 µM [inhibitor, single point] | –
COc1ccc(CC(=O)Nc2cccc(-c3csc(C)n3)c2)cc1 | inconclusive: 35.5 µM [inhibitor, single point] | –
COc1ccccc1C=NNC(=O)c1ccccc1OCCOc1ccccc1 | inconclusive: 3.55 µM [inhibitor, full curve] | –
CCSc1nc2c(c(=O)[nH]c(=O)n2C)n1CC(O)COc1ccccc1C (stereo not given) | inconclusive: 18.3 µM [inhibitor, partial curve, poor fit] | –
c1ccc2nc(-c3nc4ccccc4[nH]3)ccc2c1 | inconclusive: 5.01 µM [inhibitor, full curve, poor fit] | –
Cc1cc(C)c(NC(=O)C[C@H](CC(=O)O)c2cccc3ccccc23)c(C(=O)N2CCC3(CCCC3)CC2)c1 | inconclusive: 0.1 µM [inhibitor, full curve] | –

Structure (SMILES) | Potency | activity change, negative = inhibition
O=S(=O)(c1ccc2ccccc2c1)N(CC(O)COCc1ccco1)c1ccccc1 (stereo not given) | inconclusive: 25.9 µM [inhibitor, single point] | –
Cc1c(Cl)cccc1-c1ccc(CNc2ccc3[nH]c(=O)[nH]c3c2)o1 | – | inactive: -3.36% [at 46.1 µM]
CN(C)c1ccc(C(C(=O)NC2CCCCC2)N(Cc2ccco2)C(=O)c2snc(C(N)=O)c2N)cc1 (stereo not given) | active: 3.55 µM | –
Clc1ccc2nc(CSc3ccccc3)cn2c1 | inconclusive: 1.26 µM [inhibitor, full curve, poor fit] | –
Cc1ccc(CCNC(=O)c2cc3sccc3n2Cc2ccc(C)cc2)cc1 | inconclusive: 6.31 µM [inhibitor, full curve, poor fit] | –
c1ccc(-c2nc(-c3ccco3)n3ccccc23)cc1 | inconclusive: 7.94 µM [inhibitor, partial curve, poor fit] | –
CCOc1cc(-c2nc3ccccc3s2)ccc1O | – | inactive: 12.4% [at 46.1 µM]
CC(=O)N(C(C)=O)N1C(=O)/C(=C/c2ccc(Cl)cc2)SC1=S | inconclusive: 35.5 µM [inhibitor, single point] | –
O=C(CCc1ccccc1)c1nnc(-c2ccccc2)o1 | inconclusive: 1.26 µM [activator, full curve, poor fit] | –
S=C(NCCc1ccccc1)NN=C1CCCCCC1 | – | inactive: 18.9% [at 46.1 µM]
COc1cccc(NC(=O)C2CCCN(S(=O)(=O)c3c(C)[nH]c(=O)[nH]c3=O)C2)c1 (stereo not given) | – | inactive: -1.81% [at 46.1 µM]
CCc1ccccc1NC(=O)NCc1ccc2c(c1)OCO2 | inconclusive: 35.5 µM [activator, single point] | –
CCCOc1ccccc1OCC(=O)Nc1cc(Cl)ccc1-n1cncn1 | – | inactive: -27.1%
Cc1c(N=N/C(C(=O)Nc2ccccc2)=C(/O)c2ccccc2)c(=O)n(-c2ccccc2)n1C | inconclusive: 7.08 µM [inhibitor, partial curve, poor fit] | –
Cc1cc(C(=O)CN2C(=O)NC(C)(c3cccc(Br)c3)C2=O)c(C)n1Cc1ccco1 (stereo not given) | inconclusive: 7.08 µM [inhibitor, partial curve, poor fit] | –
CCCC(C(=O)NC1CCCC1)N(C(=O)Cn1nnc(-c2ccc(C)o2)n1)c1ccccc1OC (stereo not given) | inconclusive: 29.1 µM [inhibitor, single point] | –
COc1ccc(NC(=O)CCc2nnc3n(C)c(=O)c4sccc4n23)cc1 | – | inactive: 2.73% [at 46.1 µM]
O=C1CCCC(=O)C1=C1SCCCS1 | inconclusive: 5.62 µM [activator, single point] | –
O=C(NCc1ccco1)c1cc2nc(-c3ccc4c(c3)OCO4)cc(C(F)(F)F)n2n1 | – | inactive: -3.25%
CCn1c2ccc(C)cc2c2nnc(NN)nc21 | inconclusive: 35.5 µM [inhibitor, partial curve, poor fit] | –
